The series is described as follows: Reserpine release from chondroitin sulfate / 6-arm PEG amine hydrogel (Example 2).

This is an account of results in US11446359B2, “Systems and methods for cardiac plexus neuromodulation” (Tulavi Therapeutics, Inc., priority 2015, dated 2022).

For `COC(=O)[C@H]1[C@H]2C[C@@H]3c4[nH]c5cc(OC)ccc5c4CCN3C[C@H]2C[C@@H](OC(=O)c2cc(OC)c(OC)c(OC)c2)[C@@H]1OC` [reserpine], the “initial burst of the drug loading” value (NHS-ester activated chondroitin sulfate crosslinked with 6-arm PEG amine) was 15%. Where the note is “after initial burst”, the “release from the hydrogel” value is 20-50 μg per day.
